Experimental data reported in patent US12122742B2.

Chains of the proteins cited; added tags and fusions are not shown. Residues count along the entry.
UniProt Q14145, 321-609 limits assumed: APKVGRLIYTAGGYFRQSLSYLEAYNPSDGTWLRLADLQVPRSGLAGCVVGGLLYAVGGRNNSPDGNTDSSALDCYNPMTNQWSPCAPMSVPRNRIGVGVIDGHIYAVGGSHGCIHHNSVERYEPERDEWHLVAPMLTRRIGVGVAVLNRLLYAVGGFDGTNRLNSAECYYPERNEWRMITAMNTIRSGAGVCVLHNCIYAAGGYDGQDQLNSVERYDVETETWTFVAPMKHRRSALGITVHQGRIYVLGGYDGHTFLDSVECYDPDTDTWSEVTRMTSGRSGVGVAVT

Target: Keap1 Kelch domain protein (Homo sapiens (Human), UniProt Q14145)
Assay: Fluorescence polarization (FP) assay
Assay type: binding
Details: I-d compounds

- % inh. FP assay 0.5 (μM) (inhibitor 0.5 μM): 99.6%
- % inh. FP assay 5 (μM) (inhibitor 5 μM): 97.4%
- % inh. FP assay 50 (μM) (inhibitor 50 μM): 98.5%
SMILES: O=C(O)CN(c1ccc(N(CC(=O)O)S(=O)(=O)c2cc3c(cc2Cl)OCCO3)c2ccccc12)S(=O)(=O)c1cc2c(cc1Cl)OCCO2 [I-d-3]

The structures given here were assigned with low confidence; some may be wrong.
